According to PMC11772365:
Construct, isoform or probe ends are uncertain for at least one entry. No signal at the amounts used counts as a negative. For part of these data: At least one verdict was read from the data and is not stated in words by the source.

Legend:
[1] = tested on: MBP-AaMYC3 (Artemisia annua); experiment: EMSA; conditions: Beyotime chemiluminescent EMSA kit, biotin probes; pH and temperature not stated; recombinant protein; protein details: MBP; label: biotin
MBP = experiment: EMSA; conditions: MBP negative control; Beyotime chemiluminescent EMSA kit, biotin probes; pH and temperature not stated; recombinant protein; protein details: MBP; label: …

ACTAGCAAATAAGATAATGCCACGTGTATGAAACAGCCATGTAGGT (double strand) [pAaHD1-Gbox]
binding result [1]: binds
binding result (MBP): no binding

ACTAGCAAATAAGATAATGCCTTTTGTATGAAACAGCCATGTAGGT (double strand) [pAaHD1-mGbox]
binding result [1]: no binding
